# Assay results from PubChem BioAssay (EPA / NIEHS).
# Chains of the proteins cited; added tags and fusions are not shown. Lines headed by an entry give the natural chain unless they say otherwise; changes in a name come on top.
# UniProt P62508: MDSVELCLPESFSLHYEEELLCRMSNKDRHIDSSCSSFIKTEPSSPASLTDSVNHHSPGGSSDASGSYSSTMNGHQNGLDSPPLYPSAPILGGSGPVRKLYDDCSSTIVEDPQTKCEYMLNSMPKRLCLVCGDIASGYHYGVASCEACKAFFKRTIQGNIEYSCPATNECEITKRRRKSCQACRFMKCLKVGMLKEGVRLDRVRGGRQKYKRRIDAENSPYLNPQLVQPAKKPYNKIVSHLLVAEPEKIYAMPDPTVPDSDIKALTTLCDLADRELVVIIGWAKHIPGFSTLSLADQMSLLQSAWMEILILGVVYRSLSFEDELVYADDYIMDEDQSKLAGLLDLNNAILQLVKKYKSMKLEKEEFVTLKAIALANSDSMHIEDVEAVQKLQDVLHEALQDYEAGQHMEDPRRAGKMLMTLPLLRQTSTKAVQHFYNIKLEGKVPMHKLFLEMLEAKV
# UniProt Q13133, whole entry, looked up: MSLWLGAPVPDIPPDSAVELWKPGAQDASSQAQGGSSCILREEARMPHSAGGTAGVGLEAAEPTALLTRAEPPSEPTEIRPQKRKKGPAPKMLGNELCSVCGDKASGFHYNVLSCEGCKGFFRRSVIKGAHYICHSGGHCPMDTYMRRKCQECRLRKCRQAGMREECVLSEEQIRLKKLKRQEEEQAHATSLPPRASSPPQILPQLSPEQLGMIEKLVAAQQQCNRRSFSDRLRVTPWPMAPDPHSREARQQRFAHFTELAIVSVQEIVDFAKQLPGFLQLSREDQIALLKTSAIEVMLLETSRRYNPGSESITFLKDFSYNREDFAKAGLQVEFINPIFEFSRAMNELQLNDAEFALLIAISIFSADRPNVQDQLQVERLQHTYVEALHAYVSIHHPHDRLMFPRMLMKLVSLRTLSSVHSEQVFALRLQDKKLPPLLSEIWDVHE
# UniProt P55055, whole entry, looked up: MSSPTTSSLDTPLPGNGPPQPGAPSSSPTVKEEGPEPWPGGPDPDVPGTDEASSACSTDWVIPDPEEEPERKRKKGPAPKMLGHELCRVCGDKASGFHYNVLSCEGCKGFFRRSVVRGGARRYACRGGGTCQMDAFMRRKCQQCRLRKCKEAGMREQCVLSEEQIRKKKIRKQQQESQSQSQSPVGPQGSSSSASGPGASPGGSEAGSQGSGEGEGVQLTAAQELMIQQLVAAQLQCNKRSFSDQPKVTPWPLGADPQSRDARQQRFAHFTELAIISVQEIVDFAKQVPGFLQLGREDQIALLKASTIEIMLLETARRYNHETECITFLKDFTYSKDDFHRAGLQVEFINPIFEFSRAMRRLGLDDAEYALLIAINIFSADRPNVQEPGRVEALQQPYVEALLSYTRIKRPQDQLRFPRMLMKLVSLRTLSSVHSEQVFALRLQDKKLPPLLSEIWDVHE
# UniProt P41235: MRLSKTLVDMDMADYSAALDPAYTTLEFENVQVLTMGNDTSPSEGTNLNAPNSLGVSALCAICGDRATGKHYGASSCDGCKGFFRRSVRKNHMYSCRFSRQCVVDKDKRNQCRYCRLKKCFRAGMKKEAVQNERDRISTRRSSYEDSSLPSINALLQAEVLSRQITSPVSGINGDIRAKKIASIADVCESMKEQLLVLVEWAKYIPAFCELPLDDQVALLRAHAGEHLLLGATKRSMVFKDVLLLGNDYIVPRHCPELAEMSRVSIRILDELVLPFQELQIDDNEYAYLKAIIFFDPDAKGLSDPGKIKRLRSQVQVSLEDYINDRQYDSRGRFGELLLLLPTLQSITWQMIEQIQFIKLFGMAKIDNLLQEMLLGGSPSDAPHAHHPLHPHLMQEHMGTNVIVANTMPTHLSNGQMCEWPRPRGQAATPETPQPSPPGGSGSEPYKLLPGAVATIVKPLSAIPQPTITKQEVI
# UniProt P43354, whole entry, looked up: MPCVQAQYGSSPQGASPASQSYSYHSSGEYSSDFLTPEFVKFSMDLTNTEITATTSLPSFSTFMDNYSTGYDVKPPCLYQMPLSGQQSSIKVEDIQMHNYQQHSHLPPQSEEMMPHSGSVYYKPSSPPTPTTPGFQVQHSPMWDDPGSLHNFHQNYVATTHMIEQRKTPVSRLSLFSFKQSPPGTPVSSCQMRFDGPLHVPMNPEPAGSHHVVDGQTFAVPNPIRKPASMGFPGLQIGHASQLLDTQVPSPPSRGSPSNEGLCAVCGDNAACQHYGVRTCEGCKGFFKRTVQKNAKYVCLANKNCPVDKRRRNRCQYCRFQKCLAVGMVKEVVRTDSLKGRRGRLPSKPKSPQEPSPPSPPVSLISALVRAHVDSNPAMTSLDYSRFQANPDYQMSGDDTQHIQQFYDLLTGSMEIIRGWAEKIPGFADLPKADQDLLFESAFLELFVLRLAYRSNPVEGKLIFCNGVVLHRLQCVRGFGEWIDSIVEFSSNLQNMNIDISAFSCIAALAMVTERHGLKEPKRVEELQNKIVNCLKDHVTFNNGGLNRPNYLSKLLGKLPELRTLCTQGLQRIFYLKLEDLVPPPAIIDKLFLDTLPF
# UniProt Q07869: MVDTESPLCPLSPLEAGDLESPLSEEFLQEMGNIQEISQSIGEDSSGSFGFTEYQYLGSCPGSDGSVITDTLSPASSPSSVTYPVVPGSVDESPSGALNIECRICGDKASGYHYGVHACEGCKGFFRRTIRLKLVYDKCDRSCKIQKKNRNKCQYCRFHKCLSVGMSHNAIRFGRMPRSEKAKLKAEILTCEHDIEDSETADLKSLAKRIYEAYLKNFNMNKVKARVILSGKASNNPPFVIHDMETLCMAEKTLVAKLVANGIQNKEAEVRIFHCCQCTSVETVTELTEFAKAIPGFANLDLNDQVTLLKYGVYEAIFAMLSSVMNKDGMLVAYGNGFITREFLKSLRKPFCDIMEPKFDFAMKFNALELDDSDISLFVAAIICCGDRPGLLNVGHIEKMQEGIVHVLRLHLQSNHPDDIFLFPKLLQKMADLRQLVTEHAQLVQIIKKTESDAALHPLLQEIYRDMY
# UniProt Q92753: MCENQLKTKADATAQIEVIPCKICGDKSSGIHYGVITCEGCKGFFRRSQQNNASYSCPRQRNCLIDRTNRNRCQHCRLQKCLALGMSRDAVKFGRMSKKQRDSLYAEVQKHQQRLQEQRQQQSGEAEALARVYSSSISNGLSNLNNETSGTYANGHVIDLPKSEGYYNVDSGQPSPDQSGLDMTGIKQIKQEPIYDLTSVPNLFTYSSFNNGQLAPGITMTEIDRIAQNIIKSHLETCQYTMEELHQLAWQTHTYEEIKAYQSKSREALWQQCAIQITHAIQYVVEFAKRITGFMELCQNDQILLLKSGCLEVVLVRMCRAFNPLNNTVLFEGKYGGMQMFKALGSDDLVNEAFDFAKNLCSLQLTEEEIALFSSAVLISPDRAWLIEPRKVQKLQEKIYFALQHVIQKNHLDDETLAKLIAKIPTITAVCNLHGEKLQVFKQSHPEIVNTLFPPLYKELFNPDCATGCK
# UniProt P51449: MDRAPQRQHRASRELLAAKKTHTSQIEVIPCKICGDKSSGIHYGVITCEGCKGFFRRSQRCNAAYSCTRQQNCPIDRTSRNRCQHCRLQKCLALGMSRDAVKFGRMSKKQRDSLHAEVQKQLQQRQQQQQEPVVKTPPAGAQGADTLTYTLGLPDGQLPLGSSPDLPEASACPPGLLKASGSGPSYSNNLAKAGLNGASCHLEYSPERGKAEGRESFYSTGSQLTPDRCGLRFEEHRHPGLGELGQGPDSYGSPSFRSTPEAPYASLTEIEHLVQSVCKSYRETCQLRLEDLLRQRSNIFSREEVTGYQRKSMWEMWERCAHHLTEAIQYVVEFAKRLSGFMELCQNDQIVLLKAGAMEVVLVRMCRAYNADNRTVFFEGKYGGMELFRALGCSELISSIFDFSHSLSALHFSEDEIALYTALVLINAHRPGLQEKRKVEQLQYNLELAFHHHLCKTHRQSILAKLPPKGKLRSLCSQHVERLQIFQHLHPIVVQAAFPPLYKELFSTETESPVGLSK
# UniProt P28702: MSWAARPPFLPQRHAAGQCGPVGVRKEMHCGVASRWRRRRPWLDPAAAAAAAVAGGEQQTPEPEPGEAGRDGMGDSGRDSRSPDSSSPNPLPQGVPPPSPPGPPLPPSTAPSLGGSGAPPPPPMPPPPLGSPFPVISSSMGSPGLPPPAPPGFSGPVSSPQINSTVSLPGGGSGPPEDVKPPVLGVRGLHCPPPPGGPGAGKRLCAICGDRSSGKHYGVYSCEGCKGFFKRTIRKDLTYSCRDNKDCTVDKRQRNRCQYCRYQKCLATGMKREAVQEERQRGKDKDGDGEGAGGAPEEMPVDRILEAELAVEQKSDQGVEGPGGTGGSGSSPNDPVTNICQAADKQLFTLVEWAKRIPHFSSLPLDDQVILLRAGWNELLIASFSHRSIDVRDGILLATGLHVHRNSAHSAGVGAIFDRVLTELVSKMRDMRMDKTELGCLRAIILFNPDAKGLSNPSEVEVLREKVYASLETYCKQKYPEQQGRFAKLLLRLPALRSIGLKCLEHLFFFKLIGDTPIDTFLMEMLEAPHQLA
# UniProt P10826, whole entry, looked up: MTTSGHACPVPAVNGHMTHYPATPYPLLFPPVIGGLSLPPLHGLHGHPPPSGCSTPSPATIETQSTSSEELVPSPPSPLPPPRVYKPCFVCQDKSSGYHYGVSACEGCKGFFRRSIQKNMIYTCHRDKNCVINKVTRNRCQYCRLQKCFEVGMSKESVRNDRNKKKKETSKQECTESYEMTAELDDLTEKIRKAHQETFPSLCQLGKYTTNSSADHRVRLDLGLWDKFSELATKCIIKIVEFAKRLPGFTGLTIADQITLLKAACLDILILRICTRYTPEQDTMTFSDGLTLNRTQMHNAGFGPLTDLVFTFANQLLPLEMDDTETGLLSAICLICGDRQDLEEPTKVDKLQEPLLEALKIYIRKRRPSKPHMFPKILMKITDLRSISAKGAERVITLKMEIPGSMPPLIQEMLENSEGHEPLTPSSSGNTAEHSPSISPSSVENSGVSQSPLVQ
# UniProt P10276, whole entry, looked up: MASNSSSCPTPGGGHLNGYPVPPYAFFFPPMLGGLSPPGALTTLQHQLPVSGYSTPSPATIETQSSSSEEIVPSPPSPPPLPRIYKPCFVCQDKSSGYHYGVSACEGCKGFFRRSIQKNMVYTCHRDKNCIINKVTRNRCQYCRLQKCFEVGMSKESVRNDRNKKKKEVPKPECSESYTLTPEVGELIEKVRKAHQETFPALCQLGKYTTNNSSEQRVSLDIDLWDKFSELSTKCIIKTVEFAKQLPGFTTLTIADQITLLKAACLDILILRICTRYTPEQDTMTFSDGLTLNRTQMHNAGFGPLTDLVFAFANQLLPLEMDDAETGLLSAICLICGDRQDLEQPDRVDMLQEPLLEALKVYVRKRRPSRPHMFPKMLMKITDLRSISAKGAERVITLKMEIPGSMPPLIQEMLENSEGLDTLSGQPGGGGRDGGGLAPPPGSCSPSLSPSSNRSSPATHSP
# UniProt P13631, whole entry, looked up: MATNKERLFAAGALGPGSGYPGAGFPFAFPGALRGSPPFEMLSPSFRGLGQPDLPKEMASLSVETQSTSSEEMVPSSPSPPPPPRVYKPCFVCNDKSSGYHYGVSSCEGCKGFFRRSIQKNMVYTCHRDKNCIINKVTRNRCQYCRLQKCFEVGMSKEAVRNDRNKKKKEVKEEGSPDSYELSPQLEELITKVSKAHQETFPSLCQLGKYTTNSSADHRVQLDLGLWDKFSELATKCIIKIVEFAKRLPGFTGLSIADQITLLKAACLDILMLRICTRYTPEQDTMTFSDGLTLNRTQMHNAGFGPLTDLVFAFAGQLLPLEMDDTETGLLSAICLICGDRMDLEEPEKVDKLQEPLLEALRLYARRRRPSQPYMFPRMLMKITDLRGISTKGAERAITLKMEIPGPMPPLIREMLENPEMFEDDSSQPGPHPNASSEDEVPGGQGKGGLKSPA
# UniProt P19793: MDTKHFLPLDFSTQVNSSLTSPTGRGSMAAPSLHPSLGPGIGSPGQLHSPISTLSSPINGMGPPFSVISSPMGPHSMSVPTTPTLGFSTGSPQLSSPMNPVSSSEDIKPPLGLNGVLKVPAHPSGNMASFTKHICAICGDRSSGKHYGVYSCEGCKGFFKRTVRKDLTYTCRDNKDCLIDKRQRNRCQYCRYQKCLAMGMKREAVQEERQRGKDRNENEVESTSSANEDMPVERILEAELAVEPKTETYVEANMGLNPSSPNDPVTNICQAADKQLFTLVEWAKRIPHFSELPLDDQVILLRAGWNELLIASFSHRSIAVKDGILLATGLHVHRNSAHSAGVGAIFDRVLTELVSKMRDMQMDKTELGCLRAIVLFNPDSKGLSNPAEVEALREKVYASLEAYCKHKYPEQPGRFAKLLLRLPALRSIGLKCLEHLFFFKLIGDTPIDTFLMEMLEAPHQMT
# Several values for one entry are separate records, joined by “and”; a condition that tells them apart may be missing. Equal values may be shown once. Inconclusive results, whose numbers are uncertain, are shown with a selection of clear calls. For part of these data: Potencies beside an inconclusive call are fits to weak or partial responses and may not hold up. More than one record can exist for a structure, and the calls need not agree. Activity calls are given as the source filed them. The calls were made as follows: active = hit-call score of the fitted dose curve at least 0.9, where 1 is the maximum; inconclusive = response in the unintended direction; inactive = score below 0.9.
# What was measured:
# [1] = ATG_M_19_TRANS: Attagene TRANS-FACTORIAL HepG2 Assay for M19 Transcription Factor (Internal Marker) (AID 2282974); conditions: HepG2 Attagene TRANS-FACTORIAL M19 internal marker reporter
# In short: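 24 h chemical exposure of transiently transfected HepG2 (MRTU library). RNA → oligo(dT) RT → PCR → 6-FAM labelling → HpaI cut → CE fluorescence. Positive-direction fit vs DMSO baseline; background internal-marker readout.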
# [2] = ATG_GAL4_TRANS: Attagene TRANS-FACTORIAL HepG2 Assay for GAL4 (Internal Marker) (AID 2282976); conditions: HepG2 Attagene TRANS GAL4 internal marker reporter
# In short: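 First, HepG2 cells were transfected with reporter units under GAL4-UAS control. Next, they were treated with chemical for 24 h. Finally, RNA was reverse-transcribed, PCR-amplified, FAM-labelled and resolved by capillary electrophoresis, with induction scored against DMSO.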
# [3] = target: Estrogen-related receptor gamma (Homo sapiens) (UniProt P62508); assay: ATG_ERRg_TRANS: Attagene TRANS-FACTORIAL HepG2 Assay for human Estrogen-Related Receptor gamma (ERRg) (AID 2282977); conditions: HepG2 Attagene TRANS reporter, ERRg transactivation;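 also: hits increase reporter signal over DMSO so potencies reflect activators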
# In short: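 Exogenous NR-Gal4 chimera activity measured as reporter transcript induction after 24 h in transiently transfected HepG2 cells. RNA reverse-transcribed, PCR-amplified, 6-FAM-labelled and resolved by capillary electrophoresis; increase over DMSO baseline.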
# [4] = target: Oxysterols receptor LXR-alpha (Homo sapiens) (UniProt Q13133); assay: ATG_LXRa_TRANS: Attagene TRANS-FACTORIAL HepG2 Assay for human Liver X Receptor alpha (LXRa) (AID 2282980); conditions: HepG2 Attagene TRANS reporter, LXRa transactivation
# In short: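 Transfect HepG2 with GAL4-UAS multiplex reporter constructs (TRANS format, chimeric receptor-GAL4); treat 24 h; extract RNA, reverse-transcribe, PCR-amplify, FAM-label, HpaI-digest; resolve fragments by capillary electrophoresis. Upward response vs DMSO.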
# [5] = target: Oxysterols receptor LXR-beta (Homo sapiens) (UniProt P55055); assay: ATG_LXRb_TRANS: Attagene TRANS-FACTORIAL HepG2 Assay for human Liver X Receptor beta (LXRb) (AID 2282981); conditions: HepG2 Attagene TRANS GAL4-LXRb reporter, mRNA
# In short: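 Measures induction of a Gal4-driven reporter transcript in HepG2 cells expressing an exogenous LXRb-Gal4 fusion. Cells are exposed to compound for 24 h before RNA isolation and RT-PCR with capillary electrophoresis detection.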
# [6] = target: Hepatocyte nuclear factor 4-alpha (Homo sapiens) (UniProt P41235); assay: ATG_HNF4a_TRANS: Attagene TRANS-FACTORIAL HepG2 Assay for human Hepatocyte Nuclear Factor 4 alpha (HNF4a) (AID 2282982); conditions: HepG2 HNF4a transactivation reporter, mRNA readout
# In short: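 In this trans-factorial format, a chimeric HNF4a-GAL4 fusion drives a GAL4-UAS reporter in transfected HepG2 liver cells. After 24 h treatment, reporter mRNA induction is measured by RT-PCR with capillary electrophoresis, relative to DMSO.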
# [7] = target: Nuclear receptor subfamily 4 group A member 2 (Homo sapiens) (UniProt P43354); assay: ATG_NURR1_TRANS: Attagene TRANS-FACTORIAL HepG2 Assay for human Nuclear Receptor Related Protein 1 (NURR1) (AID 2282985); conditions: HepG2 Attagene TRANS reporter, mRNA readout
# In short: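 Chimeric NR-Gal4 fusion activity measured in HepG2 after 24 h treatment. Reporter transcripts detected by RT-PCR and capillary electrophoresis fluorescence; positive-direction curve fitting against DMSO.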
# [8] = target: human Peroxisome Proliferator-activated Receptor alpha (PPARa), PPARA (gene 5465) (UniProt Q07869); assay: ATG_PPARa_TRANS: Attagene TRANS-FACTORIAL HepG2 Assay for human Peroxisome Proliferator-activated Receptor alpha (PPARa) (AID 2283001);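 also: potency for gain of reporter signal over DMSO so agonist or activator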
# In short: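 Cells (HepG2) are transfected with multiple reporter transcription units, exposed to chemical for 24 h, then total RNA is reverse-transcribed and amplified. Labelled products are quantified by capillary electrophoresis; induction is referenced to DMSO.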
# [9] = target: human RAR-related Orphan Receptor beta (RORb), RORB (gene 6096) (UniProt Q92753); assay: ATG_RORb_TRANS: Attagene TRANS-FACTORIAL HepG2 Assay for human RAR-related Orphan Receptor beta (RORb) (AID 2283010);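 as to AC50: potency for increased reporter mRNA meaning activation of RORb-Gal4 chimera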
# In short: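 Read-out is reporter mRNA induction, quantified by RT-PCR with fluorescent capillary electrophoresis, 24 h post-dose in transiently transfected HepG2 expressing exogenous NR-Gal4 chimera. Activity fitted upward versus DMSO.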
# [10] = target: human RAR-related Orphan Receptor gamma (RORg), RORC (gene 6097) (UniProt P51449); assay: ATG_RORg_TRANS: Attagene TRANS-FACTORIAL HepG2 Assay for human RAR-related Orphan Receptor gamma (RORg) (AID 2283011);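 as to AC50: potency for induction of reporter transcripts above DMSO so activators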
# In short: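 First, HepG2 liver cells were transfected with GAL4-UAS-driven reporter constructs and the RORg-Gal4 fusion. Next, they were treated with chemical for 24 h. Finally, reporter mRNA was quantified by RT-PCR and capillary electrophoresis, with upward activity fitted against DMSO.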
# [11] = target: human Retinoid X Receptor beta (RXRb), RXRB (gene 6257) (UniProt P28702); assay: ATG_RXRb_TRANS: Attagene TRANS-FACTORIAL HepG2 Assay for human Retinoid X Receptor beta (RXRb) (AID 2283013)
# In short: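 Readout is reporter transcript induction after 24 h dosing. It is measured by RT-PCR of total RNA followed by fluorescent capillary electrophoresis. HepG2 liver cells carry transfected multiple reporter units driven by an exogenous RXRb-Gal4 fusion; activity is relative to DMSO.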
# [12] = TOX21_p53_BLA_p2_viability: Viability Assessment in the Tox21 HCT-116 p53 Agonism Beta-lactamase Assay, Phase 2 (AID 2283591);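 also: compound exposure lasted 16 h at 37 °C; actives lower the ATP signal meaning cytotoxicity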
# In short: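 HCT-116 p53-bla cells (4000/well) rested 5 h at 37C, then received compounds in DMSO (217-fold dilution) for 16 h at 37C, 5% CO2. After the CCF4 read, CellTiter-Glo was added; ATP luminescence was read after 30 min at room temperature.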
# [13] = TOX21_p53_BLA_p3_viability: Viability Assessment in the Tox21 HCT-116 p53 Agonism Beta-lactamase Assay, Phase 3 (AID 2283593);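 also: cells exposed to compound for 16 h before reading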
# In short: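 HCT-116 cells (4000/well) rested 5 h at 37C, then got DMSO compounds by pin tool (217-fold dilution) for 16 h at 37C, 5% CO2. After the bla read, CellTiter-Glo was added and luminescence read at 30 min, room temperature.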
# [14] = TOX21_p53_BLA_p4_viability: Viability Assessment in the Tox21 HCT-116 p53 Agonism Beta-lactamase Assay, Phase 4 (AID 2283597);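 also: hits lower the luminescence signal meaning cytotoxicity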
# In short: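 Readout: ATP luminescence (CellTiter-Glo), measured 30 min after reagent addition at RT. The reagent followed a 2 h CCF4-AM incubation, and the cells had been exposed to compound for 16 h at 37C.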
# [15] = target: human Retinoic Acid Receptor beta (RARb), RARB (gene 5915) (UniProt P10826); assay: ATG_RARb_TRANS: Attagene TRANS-FACTORIAL HepG2 Assay for human Retinoic Acid Receptor beta (AID 2283004)
# In short: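 Transient transfection of HepG2 with multiple reporter units → chemical dosing, 24 h → total RNA isolation → RT with oligo(dT) → reporter-specific PCR, 6-FAM primer extension, HpaI digest → capillary electrophoresis. Positive direction vs DMSO control.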
# [16] = target: Retinoic acid receptor alpha (Homo sapiens) (UniProt P10276); assay: ATG_RARa_TRANS: Attagene TRANS-FACTORIAL HepG2 Assay for human Retinoic Acid Receptor alpha (RARa) (AID 2283005);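 as to AC50: potency for increased reporter signal meaning RARa activation over DMSO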
# In short: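 HepG2 cells transiently transfected with multiple reporter units expressing chimeric RARα-GAL4 fusion, with GAL4-UAS-driven reporters. After 24 h compound exposure, reporter mRNA induction quantified by RT-PCR and capillary electrophoresis with fluorescent labeling; gain-of-signal fitted relative to DMSO control.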
# [17] = target: human Retinoic Acid Receptor gamma (RARg), RARG (gene 5916) (UniProt P13631); assay: ATG_RARg_TRANS: Attagene TRANS-FACTORIAL HepG2 Assay for human Retinoic Acid Receptor gamma (RARg) (AID 2283009);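 as to AC50: AC50 is for reporter induction above DMSO meaning RARg activation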
# In short: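 Transactivation of exogenous RARg-Gal4 fusion measured as reporter transcript induction after 24 h in transfected HepG2 cells. RNA reverse-transcribed, amplified, fluorescently labeled and resolved by capillary electrophoresis; increase relative to DMSO.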
# [18] = target: Retinoic acid receptor RXR-alpha (Homo sapiens) (UniProt P19793); assay: OT_NURR1_NURR1RXRa_0480: Odyssey Thera (OT) 8-hour HEK293T Protein Complementation Assay for Nurr1/retinoid X receptor (RXR) (AID 2283385)
# In short: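 Interaction of Nurr1 with RXRα read as reconstituted reporter fluorescence in a HEK293T fragment-complementation system, 8 h post-treatment; increase over DMSO baseline analysed.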
# [19] = target: Retinoic acid receptor RXR-alpha (Homo sapiens) (UniProt P19793); assay: OT_NURR1_NURR1RXRa_1440: Odyssey Thera (OT) 24-hour HEK293T Protein Complementation Assay for Nurr1/retinoid X receptor (RXR) (AID 2283386)
# In short: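 Gain in fluorescence, fitted relative to DMSO, reflects Nurr1–RXRα association in HEK293T cells after 24 h dosing. Bait and prey are each linked to a reporter-protein fragment that reassembles on interaction.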
structure (smiles),measurement,setting,value
O=NN(c1ccccc1)c1ccccc1,AC50,[1],inconclusive: 8.84 µM
same,AC50,[2],inconclusive: 100 µM
same,AC50,[4],inconclusive: 0.0846 µM
same,AC50,[6],inconclusive: 100 µM
same,AC50,[7],inconclusive: 0.00914 µM
same,AC50,[15],inconclusive: 0.678 µM
same,AC50,[16],inconclusive: 21.6 µM
same,AC50,[17],inconclusive: 2.66 µM
same,AC50,[9],inconclusive: 0.0987 µM
same,outcome,[10],inactive
same,AC50,[11],active: 52.2 µM
same,outcome,[18],inactive
same,AC50,[19],inconclusive: 50 µM
same,AC50,[13],inconclusive: 46.1 µM and inconclusive: 45.2 µM
same,AC50,[14],inconclusive: 46.1 µM
Nc1ccc([N+](=O)[O-])cc1,AC50,[2],inconclusive: 100 µM
same,AC50,[3],inconclusive: 100 µM
same,AC50,[9],inconclusive: 0.00426 µM
same,outcome,[11],inactive
same,AC50,[19],active: 26.9 µM
same,outcome,[12],inactive
O=C(CBr)OCc1ccccc1,outcome,[1],inactive
same,outcome,[2],inactive
same,outcome,[4],inactive
same,AC50,[5],inconclusive: 100 µM
same,AC50,[6],inconclusive: 0.0094 µM
same,AC50,[8],inconclusive: 100 µM
same,AC50,[15],inconclusive: 100 µM
same,AC50,[16],inconclusive: 42.1 µM
same,AC50,[17],inconclusive: 100 µM
same,AC50,[9],inconclusive: 100 µM
same,AC50,[10],inconclusive: 100 µM
same,AC50,[11],inconclusive: 100 µM
same,outcome,[18],inactive
same,outcome,[19],inactive
same,outcome,[12],inactive
same,AC50,[13],inconclusive: 46.1 µM
same,AC50,[14],inconclusive: 46.1 µM

# Given with tabs: entries from further up.
structure (smiles)	measurement	setting	value
O=NN(c1ccccc1)c1ccccc1	outcome	[10]	inactive
same	AC50	[13]	inconclusive: 46.1 µM and inconclusive: 45.2 µM
Nc1ccc([N+](=O)[O-])cc1	outcome	[11]	inactive
O=C(CBr)OCc1ccccc1	outcome	[1]	inactive
same	outcome	[4]	inactive
same	AC50	[11]	inconclusive: 100 µM
